Some of these results come from one statement about several compounds together.
Legend:
Botrytis cinerea = test: Activity against gray mold on bell pepper leaves caused by Botrytis cinerea, protective application; assay type: in vivo; conditions: bell pepper seedlings "Neusiedler Ideal Elite", sprayed with 250 ppm, inoculated next day, read after 5 days; untreated plants 90% infected
Alternaria solani = test: Activity against early blight of tomato caused by Alternaria solani; assay type: in vivo; conditions: tomato plants "Golden Princess", sprayed, infected next day, read after 5 days; concentration not given; untreated plants 90% infected

SMILES	extent of the fungal infection on the leaves, determined visually in % (Botrytis cinerea)	infection (early blight) determined visually in % (Alternaria solani)
C[C@H](Nc1nc(N2CCCC2=O)nc(Cl)c1-c1c(F)cc(F)cc1F)C(F)(F)F [Compound I-2, 1-[4-chloro-6-(2,2,2-trifluoro-1-methylethylamino)-5-(2,4,6-trifluorophenyl)pyrimidin-2-yl]-pyrrolidin-2-one]	less than 5%	less than 10%
C[C@H](Nc1nc(N2CCC(=O)N2)nc(Cl)c1-c1c(F)cccc1Cl)C(F)(F)F [Compound I-7, 1-[4-chloro-6-(2,2,2-trifluoro-1-methylethylamino)-5-(2-chloro-6-fluorophenyl)pyrimidin-2-yl]pyridazolidin-3-one]	less than 5%	less than 10%

From US7820647B2, “2-substituted pyrimidines and their use as pesticides” (BASF Aktiengesellschaft, priority 2004, dated 2010)
